Literature values, collected in patent EP2439197A1, “Substituted benzimidazole derivatives as melanocortin 4 receptor antagonists” (Santhera Pharmaceuticals (Schweiz) AG, priority 2010, dated 2012).

Settings: control compounds of Caco-2 assay; Zhao et al. 2001; cited from earlier work

## CC(C)NCC(O)COc1ccc(CC(N)=O)cc1 (stereo not shown) [atenolol]
  human absorption: approximately 50%
